Assay results: PubChem BioAssay AID2685 (National Center for Advancing Translational Sciences (NCATS), 2010)
The list shows a part of the results. Shown are side measurements of this screen, not its main read-out; they come without a call. The list favours compounds with an active or inconclusive main result. Words in brackets tell the shape of the fitted curve; partial curves, single points and poor fits give uncertain potencies.

Assay: qHTS Assay for Lipid Storage Modulators in Drosophila S3 Cells;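 for cell number change: cells counted by Cell Tracker Red CMTPX staining in the red channel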
Settings: BODIPY lipid droplet fluorescence, 18-24 h; for cell number change: measured here: cell count max response, cells fed with added oleic acid
Method in brief: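 Laser-scanning cytometry quantifies lipid droplet accumulation (500–530 nm total intensity; droplet/cell object ratio) in oleic acid-fed (400 uM added) Drosophila S3 cells treated with a concentration series. 20 uM Triacsin C defined 100% inhibition.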

[1] = measured here: cell number channel AC50, cells fed with added oleic acid
[2] = measured here: lipid fluorescence (Fed channel) AC50, cells fed with added oleic acid

Structure (SMILES) | cell number change [%] | AC50 [1] | AC50 [2]
COc1ccc(C2CN=NC23CCCc2ccccc2C3=O)cc1 (stereo not given) | -11.2 |  | 
Cn1c(N2CCCC2)nc2c1c(=O)[nH]c(=O)n2C | -36.8 | 11.6 µM [falling, partial curve, poor fit] | 
CC(=O)Nc1cc[n+](C(C)C(=O)c2ccc(Br)cc2)cc1 (stereo not given) | 17.5 |  | 6.51 µM [falling, single point]
Cc1cc(C(=O)OCC(=O)N2CC(C)OC(C)C2)c2ccccc2n1 (stereo not given) | 66.6 | 6.51 µM [rising, full curve] | 
N#Cc1cccc(S(=O)(=O)NCCOc2ccccc2F)c1 | 24.8 |  | 29.1 µM [rising, single point]
COc1ccc(C(=O)c2cc3ccc(O)cc3oc2=O)cc1 | -1.54 |  | 6.51 µM [falling, single point]
CCOC(=O)CSc1nc(C(C)C)nc2ccccc12 |  |  | 0.0651 µM [falling, full curve, poor fit]
O=S(=O)(c1ccccc1)N1CN(Cc2ccc(F)cc2)c2nc3ccccc3nc21 | -9.5 |  | 2.31 µM [rising, partial curve]
O=C(O)/C(=C\c1c(C(=O)O)[nH]c2cc(Cl)cc(Cl)c12)c1ccccc1 |  |  | 2.06 µM [falling, partial curve, poor fit]
COC(=O)C1=C(C)N(CCc2ccccc2)C(=O)/C1=C\c1ccco1 | -36.4 | 29.1 µM [falling, single point] | 0.291 µM [falling, full curve]
CC(C)C[C@H]1CN=C(N(C)C)N1CC1CCCC1 | 25.3 |  | 25.9 µM [rising, single point]
CC[N+]1=C(C)C(C)(C)c2cc(C)ccc21 |  |  | 0.731 µM [falling, full curve]
CC(C)NC(=S)N(C)C1(c2ccccc2Cl)CCCCC1=O (stereo not given) | -15.6 | 6.51 µM [falling, single point] | 11.6 µM [falling, partial curve]
Oc1ccc(/C=N/N(Cc2ccccc2)c2ccccc2)cc1 | -47.1 | 18.4 µM [falling, single point] | 29.1 µM [falling, single point]
CC(=O)OC1COC(n2ccc3cc([N+](=O)[O-])ccc32)C(OC(C)=O)C1OC(C)=O (stereo not given) | -0.956 |  | 3.26 µM [rising, single point]
CCN(CC)S(=O)(=O)c1cc(NC(=O)Cc2n[nH]c(=O)c3ccccc23)ccc1C | -1.05 | 1.64 µM [rising, single point] | 2.59 µM [rising, single point]
Nc1c(N=Nc2cccc(Cl)c2)c(=O)[nH]n1-c1ccccc1 | -47.3 | 23.1 µM [falling, single point] | 
Cn1nc(C(=O)N2CCN(c3ccccc3F)CC2)c2c1-c1ccccc1S(=O)(=O)C2 | 14.9 |  | 
CCCC(=O)Nc1sc(C)c(-c2ccc(C(C)CC)cc2)c1C#N (stereo not given) | 9.77 |  | 18.4 µM [rising, partial curve, poor fit]

Structure (SMILES) | cell number change [%] | AC50 [1] | AC50 [2]
Cc1ccccc1-n1c(N)cc(=O)[nH]c1=S | -28.8 | 0.651 µM [falling, full curve] | 2.06 µM [falling, full curve]
CCc1ccccc1NC(=O)CN1C(=O)c2ccccc2S1(=O)=O | -15.8 |  | 
O=[N+]([O-])c1cccc(-n2nncc2-c2ccccc2)c1 | 17.9 |  | 0.58 µM [falling, single point]
CCOC(=O)C(=Cc1ccccc1OC)C(=O)OCC | -7.79 |  | 23.1 µM [falling, partial curve, poor fit]
O=C(O)c1ccc(/C=N/NC(=O)c2cc(-c3ccc4c5c(cccc35)CC4)n[nH]2)cc1 |  |  | 0.146 µM [falling, full curve, poor fit]
O=C(CNc1ccc(Br)cc1)Nc1ccc(S(=O)(=O)N2CCCC2)cc1 | -64.4 | 16.4 µM [falling, partial curve] | 0.259 µM [falling, full curve, poor fit]
CCOc1ccccc1NC(=O)N1CCC(C(=O)c2ccc(F)cc2)CC1 | 59.1 | 0.92 µM [rising, partial curve] | 0.259 µM [rising, full curve, poor fit]
Cc1c(-n2c(SCC(=O)NC(C)C(C)C)nc3ccccc3c2=O)c(=O)n(-c2ccccc2)n1C (stereo not given) | 44.5 | 4.11 µM [rising, full curve, poor fit] | 
O=C(NCc1cccnc1)c1csc2c1CCCC2 |  | 1.46 µM [rising, full curve] | 0.651 µM [falling, single point]
CCc1ccc(NC(=O)CSc2nc(O)cc(=O)n2C2CCCC2)cc1 | 38.6 | 29.1 µM [rising, single point] | 
Clc1cccc(Cl)c1OCCCCN1CCCCC1 | 42.6 | 18.4 µM [rising, partial curve, poor fit] | 
CN1C(=O)C(CC(=O)Nc2ccc(F)cc2)N(NC(=O)c2cccc(F)c2)C1=S (stereo not given) | -9.9 |  | 18.4 µM [falling, partial curve]
COc1ccc(-c2cc(C(=O)NCC3CCCO3)c3ccccc3n2)cc1 (stereo not given) | 20.5 | 0.92 µM [rising, full curve, poor fit] | 1.03 µM [rising, full curve, poor fit]
COC(=O)C(NC(=O)CCC(=O)NC(C(=O)OC)c1ccccc1)c1ccccc1 (stereo not given) | 10 |  | 29.1 µM [rising, single point]
O=C(COC(=O)c1ccc(F)cc1F)Nc1ncccn1 | -45.4 | 3.66 µM [falling, full curve] | 3.66 µM [falling, full curve]
CC(C)(C)c1cc(C(=O)NCc2cc(F)cc3c2OCOC3)n(Cc2ccccc2)n1 | 13.2 |  | 2.06 µM [rising, partial curve]
CC1CCCCN1Cc1nc2c(c(=O)n(C)c(=O)n2C)n1Cc1c(F)cccc1Cl (stereo not given) | 14.5 |  | 0.461 µM [rising, full curve, poor fit]
Cc1cccc(-n2c(-c3ccoc3C)n[nH]c2=S)c1 | -36.9 | 29.1 µM [falling, single point] | 23.1 µM [falling, partial curve]
CCCCC(=O)Nc1ccc(C(=O)N2CCC(C(=O)OCC)CC2)cc1 | 70.1 | 29.1 µM [rising, single point] | 0.164 µM [falling, full curve, poor fit]

Structure (SMILES) | cell number change [%] | AC50 [1] | AC50 [2]
CCNc1nc(NC(C)CC)nc(Oc2ccc(=O)[nH]n2)n1 (stereo not given) | 12.1 |  | 
NC(=O)CC(NC(=O)c1ccc(Br)cc1)c1ccc(N2CCCCCCC2)c([N+](=O)[O-])c1 (stereo not given) | -46 | 16.4 µM [falling, single point] | 29.1 µM [falling, single point]
S=C(c1cccs1)N1CCCC1 |  | 0.00461 µM [falling, full curve, poor fit] | 1.84 µM [falling, partial curve]
CCOC(=O)C1CCCN(S(=O)(=O)c2ccc(OC)cc2)C1 (stereo not given) | -26 |  | 0.206 µM [falling, full curve, poor fit]
CCCN(C(=O)c1ccc(OCC(C)C)cc1)c1c(N)n(Cc2ccccc2)c(=O)[nH]c1=O | -31 | 7.31 µM [falling, partial curve] | 
Cc1cc(C)cc(NC(=O)CN2CCC(NC(=O)Cc3ccccc3)CC2)c1 | 12.5 |  | 32.6 µM [rising, single point]
Cc1ccccc1-c1nc(C(=O)NCC2CCCO2)cc2c1[nH]c1ccccc12 (stereo not given) | 9.71 |  | 29.1 µM [falling, single point]
COc1ccc(S(=O)(=O)Nc2cccc(SC)c2)cc1C(=O)N1CCOCC1 | 18.4 |  | 
COc1cccc2c(=O)c(C(=O)O)c[nH]c12 | 46.6 | 16.4 µM [rising, partial curve] | 
COc1ccc(CN2C(=O)c3cccnc3C2Nc2ccc(C)cc2)cc1 (stereo not given) |  | 0.92 µM [rising, full curve] | 1.03 µM [rising, full curve]
CCCC1(C(=O)OC)NC(c2ccco2)C2C(=O)N(C)C(=O)C21 (stereo not given) | -55.2 | 23.1 µM [falling, single point] | 18.4 µM [falling, single point]
Cc1nc(-c2c(C(F)(F)F)noc2-c2ccc(O)cc2O)cs1 | -28.4 |  | 32.6 µM [falling, single point]
CC(NC(=O)Nc1ccc(F)cc1)C(c1cccs1)N1CCCC1 (stereo not given) | 40.2 | 29.1 µM [rising, partial curve, poor fit] | 
CCN(CC)C(=O)CN(c1cc2c(cc1OC)oc1ccccc12)S(=O)(=O)c1ccccc1 | 35.3 | 0.58 µM [rising, full curve, poor fit] | 
Cc1ccccc1CSc1nncn1N | 9.47 |  | 4.61 µM [falling, full curve, poor fit]
O=C(O)CCC1(C(=O)O)OCCc2ccccc21 (stereo not given) |  | 6.51 µM [falling, single point] | 1.64 µM [falling, partial curve]
Cc1cc(NC(=O)CCC(=O)N(CC(=O)NCC2CCCO2)c2ccc(C)c(C)c2)no1 (stereo not given) |  |  | 0.0058 µM [falling, full curve, poor fit]
CC(=O)Nc1ccc(S(=O)(=O)NC(C)C(=O)NC(C)c2ccccc2)cc1 (stereo not given) | 46.1 | 7.31 µM [rising, partial curve] | 

4 records drawn at random from the list so far, as already listed:
Structure (SMILES) | cell number change [%] | AC50 [1] | AC50 [2]
Cc1ccccc1-c1nc(C(=O)NCC2CCCO2)cc2c1[nH]c1ccccc12 (stereo not given) | 9.71 |  | 29.1 µM [falling, single point]
CCCC1(C(=O)OC)NC(c2ccco2)C2C(=O)N(C)C(=O)C21 (stereo not given) | -55.2 | 23.1 µM [falling, single point] | 18.4 µM [falling, single point]
S=C(c1cccs1)N1CCCC1 |  | 0.00461 µM [falling, full curve, poor fit] | 1.84 µM [falling, partial curve]
CCOC(=O)C1CCCN(S(=O)(=O)c2ccc(OC)cc2)C1 (stereo not given) | -26 |  | 0.206 µM [falling, full curve, poor fit]
